System: total class I and II HDAC enzyme activity in resting CD4 T cells
Conditions: pulse RMD 4 hours, VOR 24 hours, PNB 24 hours, 6 to 48 hours
Experimental: Resting CD4 T cells obtained from HIV-infected patients on suppressive cART were incubated with serial dilutions of HDACi in 96-well plates at 10,000 cells/well for indicated time and then lysed by repeated freezing and thawing. Total cellular HDAC activity was measured using the HDAC-Glo I/II assay kit (Promega) according to the manufacturer's protocol.

## O=C(CCCCCCC(=O)Nc1ccccc1)NO [VOR, suberoylanilide hydroxamic acid]
  persistence of inhibition of cell-associated HDAC activity: transient and decreased after 24 hours of incubation

Reference: paper PMC3983056 (PLoS Pathogens, 2014)
